For 1 substance, binding results are on record in PMC6616073.

By UniProt entry, the sequences of proteins in these tests, tags left out. Residues count along the entry.
UniProt P36544, residues 23-502: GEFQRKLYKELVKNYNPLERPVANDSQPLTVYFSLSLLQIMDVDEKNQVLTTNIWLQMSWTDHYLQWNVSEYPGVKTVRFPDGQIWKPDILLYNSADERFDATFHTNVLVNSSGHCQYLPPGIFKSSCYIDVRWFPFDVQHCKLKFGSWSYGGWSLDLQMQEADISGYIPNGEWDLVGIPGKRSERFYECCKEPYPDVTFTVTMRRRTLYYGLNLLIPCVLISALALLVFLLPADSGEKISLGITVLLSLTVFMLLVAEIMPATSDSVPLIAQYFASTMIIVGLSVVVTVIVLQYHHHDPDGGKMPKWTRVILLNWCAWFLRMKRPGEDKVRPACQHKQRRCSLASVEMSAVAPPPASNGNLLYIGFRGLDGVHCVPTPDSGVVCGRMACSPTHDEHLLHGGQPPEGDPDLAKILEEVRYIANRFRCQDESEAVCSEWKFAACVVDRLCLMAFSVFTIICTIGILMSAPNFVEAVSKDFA
UniProt P60615, residues 22-95: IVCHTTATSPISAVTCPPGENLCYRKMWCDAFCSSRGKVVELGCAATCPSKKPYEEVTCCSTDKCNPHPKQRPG

This test addresses human α7 nicotinic acetylcholine receptor stably expressed in the rat pituitary tumor-derived cell line GH4C1 (human) (UniProt P36544). The test can be described thus: radioligand binding; only the binder purified.

Results are given in words; binding and its absence hold for the method and conditions named. Some binding calls cover weakened binding; strength is not graded here.

Regarding “radioiodinated α-bungarotoxin (from UniProt P60615 22-95) (ligand)”, the binding result is “binds”.
